Data as given in PMC8486843, “SPOP mutation induces replication over-firing by impairing Geminin ubiquitination and triggers replication catastrophe upon ATR inhibition” (Nature Communications, 2021).
These are yes or no findings as the source states them, for the method shown. In cells and extracts the contact can be indirect. A result given as binding can be weak or reduced; the word gives no strength. Tags and fused reporters may be left off the sequences shown.

Chains of the proteins cited; added tags and fusions are not shown. Lines headed by an entry give the natural chain unless they say otherwise; changes in a name come on top.
UniProt O43791: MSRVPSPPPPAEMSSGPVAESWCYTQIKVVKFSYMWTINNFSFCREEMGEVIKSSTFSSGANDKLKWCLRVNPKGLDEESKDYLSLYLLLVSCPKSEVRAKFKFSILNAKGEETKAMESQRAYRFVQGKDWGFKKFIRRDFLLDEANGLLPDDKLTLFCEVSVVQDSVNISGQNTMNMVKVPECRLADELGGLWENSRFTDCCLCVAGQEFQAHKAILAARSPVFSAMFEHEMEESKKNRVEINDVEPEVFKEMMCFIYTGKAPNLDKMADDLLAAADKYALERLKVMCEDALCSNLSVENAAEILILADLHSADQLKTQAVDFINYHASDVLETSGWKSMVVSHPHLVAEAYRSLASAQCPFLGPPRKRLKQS

Molecular target: T1, Flag-Geminin WT (human) (UniProt O75496)
T1 sequence: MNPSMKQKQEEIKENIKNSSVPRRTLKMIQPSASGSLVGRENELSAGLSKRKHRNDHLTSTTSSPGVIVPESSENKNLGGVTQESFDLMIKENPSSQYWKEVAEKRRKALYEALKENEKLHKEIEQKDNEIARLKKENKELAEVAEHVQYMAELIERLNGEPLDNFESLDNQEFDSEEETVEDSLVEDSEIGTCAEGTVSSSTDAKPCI
Assay: co-IP; 293T cells co-transfected with Flag-Geminin (WT or mutant) and SPOP (WT or mutant) (Fig. 1g, 3b, 3d, 3g)

| binding | Substance |
| --- | --- |
| binds | SPOP ΔBTB mutant (from UniProt O43791) |
| no binding | SPOP ΔMATH mutant (from UniProt O43791) |
